The text below walks through data of publication PMC7052193, “Nanobody-enabled monitoring of kappa opioid receptor states” (Nature Communications, 2020).

The assay addresses ETA-KOR chimera-Rluc (human). In words: FRET or BRET; kinetic BRET between ETA-KOR-Rluc and Nb6-mVenus in HEK 293T cells; 10 µM Endothelin-3 added, then the antagonist CI 1020; only the binder purified. In general terms: Bioluminescence resonance energy transfer reports proximity on the nanometre scale.

No constants are given. Whether binding was seen depends on the method and setting. In cells and extracts the contact can be indirect. A result given as binding can be weak or reduced; the word gives no strength.

B1: Endothelin-3 (peptide, UniProt P14138 97-117)
peptide: CTCFTYKDKECVYYCHLDIIW
Take B1: the binding result is on record as “binds”.
